Values from PubChem BioAssay AID1259254 (NCATS, 2017)

Aim: 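Finding genes that stop cells copying their DNA twice in one cycle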 (primary screen)
Cells: human HCT116 colorectal cancer cells
Reagent: single siRNA against human genes
Duration: 3 days
Read-out: 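Imaged Hoechst DNA stain sorts each cell into a cycle phase by DNA amount; per plate, G2 fraction set to 0% for non-targeting and 100% for GMNN siRNA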
Scale: G2 robust z-score and G2 cells, % of GMNN control: higher = more G2 cells, more excess DNA replication; raw share of cells in G2: higher = larger share of cells with G2 DNA content
Active means: 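Active siRNAs have a G2 robust z of 5 or more median absolute deviations over the median, which in these data means about 38% or higher of GMNN control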
Shown is an unselected part of about 59,000 deposited reagents. About 1,550 of them (2.6%) were called active. 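G2 share is only a proxy for re-replication; each gene was hit by three separate siRNAs, and active genes were retested.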 Raw values are not corrected between plates. Reagents against one gene are numbered here. The record does not give: the amount of reagent.

| gene knocked down | reagent no. | G2 robust z-score | G2 cells, % of GMNN control | raw share of cells in G2 (%) | Outcome |
| --- | --- | --- | --- | --- | --- |
| YTHDF2 (YTH N6-methyladenosine RNA binding protein F2) | 1 | 3.02 | 24.2 | 12.3 | inactive |
| YTHDF2 (YTH N6-methyladenosine RNA binding protein F2) | 2 | -0.802 | -2.67 | 3.15 | inactive |
| YTHDF2 (YTH N6-methyladenosine RNA binding protein F2) | 3 | -0.185 | 1.67 | 3.74 | inactive |
| FRYL (FRY like transcription coactivator) | 1 | 1.61 | 14.3 | 8.84 | inactive |
| FRYL (FRY like transcription coactivator) | 2 | -0.277 | 1.02 | 3.44 | inactive |
| FRYL (FRY like transcription coactivator) | 3 | -0.471 | -0.345 | 3.16 | inactive |
| FRYL (FRY like transcription coactivator) | 4 | -0.946 | -3.69 | 2.14 | inactive |
| FRYL (FRY like transcription coactivator) | 5 | -0.0383 | 2.7 | 3.82 | inactive |
| FRYL (FRY like transcription coactivator) | 6 | -0.939 | -3.64 | 2.22 | inactive |
| TRIM17 (tripartite motif containing 17) | 1 | -0.706 | -2 | 3.03 | inactive |
| TRIM17 (tripartite motif containing 17) | 2 | -0.743 | -2.26 | 4.93 | inactive |
| TRIM17 (tripartite motif containing 17) | 3 | -0.155 | 1.88 | 4.94 | inactive |
| KBTBD3 (kelch repeat and BTB domain containing 3) | 1 | -0.712 | -2.05 | 3.14 | inactive |
| KBTBD3 (kelch repeat and BTB domain containing 3) | 2 | -0.349 | 0.513 | 3.07 | inactive |
| KBTBD3 (kelch repeat and BTB domain containing 3) | 3 | -0.285 | 0.961 | 3.4 | inactive |
| BAG4 (BAG cochaperone 4) | 1 | 0.173 | 4.18 | 4.92 | inactive |
| BAG4 (BAG cochaperone 4) | 2 | 3.66 | 28.7 | 18.8 | inactive |
| BAG4 (BAG cochaperone 4) | 3 | 0.245 | 4.69 | 5.3 | inactive |
| LOC645984 (retired record) | 1 | -0.672 | -1.76 | 3.11 | inactive |
| LOC645984 (retired record) | 2 | 7.77 | 57.6 | 24.6 | active |
| LOC645984 (retired record) | 3 | 0.533 | 6.72 | 5.18 | inactive |
| TSPO2 (translocator protein 2) | 1 | -0.24 | 1.28 | 6.57 | inactive |
| TSPO2 (translocator protein 2) | 2 | 0.197 | 4.36 | 6.3 | inactive |
| TSPO2 (translocator protein 2) | 3 | 1.53 | 13.8 | 10.5 | inactive |
| LRRC1 (leucine rich repeat containing 1) | 1 | 0.175 | 4.2 | 6.14 | inactive |
| LRRC1 (leucine rich repeat containing 1) | 2 | 0.0796 | 3.53 | 5.6 | inactive |
| LRRC1 (leucine rich repeat containing 1) | 3 | 1.26 | 11.8 | 6.91 | inactive |
| SACK1A (scaffolding CK1 anchoring protein A) | 1 | -1.09 | -4.71 | 2.08 | inactive |
| SACK1A (scaffolding CK1 anchoring protein A) | 2 | -0.0225 | 2.81 | 3.88 | inactive |
| SACK1A (scaffolding CK1 anchoring protein A) | 3 | -0.858 | -3.07 | 1.95 | inactive |
| CCDC54 (coiled-coil domain containing 54) | 1 | 1.83 | 15.8 | 9.38 | inactive |
| CCDC54 (coiled-coil domain containing 54) | 2 | -0.564 | -1 | 3.16 | inactive |
| CCDC54 (coiled-coil domain containing 54) | 3 | 2.14 | 18 | 7.88 | inactive |
| C12orf43 (chromosome 12 open reading frame 43) | 1 | 0.998 | 9.99 | 8.93 | inactive |
| C12orf43 (chromosome 12 open reading frame 43) | 2 | -0.889 | -3.29 | 3.14 | inactive |
| C12orf43 (chromosome 12 open reading frame 43) | 3 | -0.886 | -3.26 | 1.84 | inactive |
| RABGGTA (Rab geranylgeranyltransferase subunit alpha) | 1 | 1.24 | 11.7 | 8.99 | inactive |
| RABGGTA (Rab geranylgeranyltransferase subunit alpha) | 2 | 0.0892 | 3.59 | 6.05 | inactive |
| RABGGTA (Rab geranylgeranyltransferase subunit alpha) | 3 | -0.12 | 2.13 | 4.85 | inactive |
| SECISBP2 (SECIS binding protein 2) | 1 | 1.77 | 15.5 | 11.3 | inactive |
| SECISBP2 (SECIS binding protein 2) | 2 | -0.936 | -3.62 | 2.99 | inactive |
| SECISBP2 (SECIS binding protein 2) | 3 | 0.644 | 7.5 | 4.68 | inactive |
| IGFBP2 (insulin like growth factor binding protein 2) | 1 | -0.544 | -0.86 | 3.77 | inactive |
| IGFBP2 (insulin like growth factor binding protein 2) | 2 | 0.775 | 8.42 | 6.82 | inactive |
| IGFBP2 (insulin like growth factor binding protein 2) | 3 | -0.725 | -2.13 | 4.3 | inactive |
| RCE1 (Ras converting CAAX endopeptidase 1) | 1 | -0.959 | -3.78 | 4.24 | inactive |
| RCE1 (Ras converting CAAX endopeptidase 1) | 2 | -1.28 | -6 | 1.67 | inactive |
| RCE1 (Ras converting CAAX endopeptidase 1) | 3 | 3.15 | 25.1 | 13.8 | inactive |

Individual results from the entries so far.
Value of BAG4 (BAG cochaperone 4) #3 under “raw share of cells in G2 (%)”: 5.3
Entry of FRYL (FRY like transcription coactivator) #2 in “G2 robust z-score”: -0.277
For “G2 cells, % of GMNN control”, KBTBD3 (kelch repeat and BTB domain containing 3) #3 is entered as 0.961
SACK1A (scaffolding CK1 anchoring protein A) #1, Outcome = inactive
For “raw share of cells in G2 (%)”, LOC645984 (retired record) #1 is entered as 3.11
Result of TSPO2 (translocator protein 2) #3 in “G2 cells, % of GMNN control”: 13.8
